{"source": "patent USRE30731E", "about": "(priority 1977, dated 1981)", "assay": "general procedure: Boc solid-phase peptide synthesis; 1.4% crosslinked 100-200 mesh phenolic resin from acetoxystyrene/styrene/divinylbenzene copolymer (phenyl ester linkage); DCCI (with pyridine, N-methyl morpholine or HOBt)", "details": "whole synthesis; for isolated yield: overall"}
{"substance": "5-Amino-6-(4'-hdyroxyphenyl)-hexanoyl-glycyl-L-phenylalanyl-L-methionine a mide", "values": [{"measurement": "isolated mass", "setting": "scale 0.1 mmol", "value": 41.7, "unit": "mg"}]}
{"substance": "5-amino-6-(4-hydroxyphenyl)-hexanoyl-glycyl-phenylalanyl-methionine amide", "values": [{"measurement": "isolated yield", "value": 40, "unit": "%"}]}
{"substance": "BOC--Tyr--Gly--Gly--Phe--Met--OH", "values": [{"measurement": "isolated yield", "setting": "based on methionine originally coupled to the resin", "value": 58, "unit": "%"}]}
{"substance": "H-Tyr-Gly-Gly-Phe-Met-OH", "values": [{"measurement": "isolated yield", "value": 48, "unit": "%"}]}
